Laboratory results: article PMC7432598
Results are given in words; binding and its absence hold for the method and conditions named. In cells and extracts the contact can be indirect. Some entries that bind do so weakly or less than the wild type.

By UniProt entry, the sequences of proteins in these tests, tags left out. Residues count along the entry.
UniProt P16092, residues 22-822: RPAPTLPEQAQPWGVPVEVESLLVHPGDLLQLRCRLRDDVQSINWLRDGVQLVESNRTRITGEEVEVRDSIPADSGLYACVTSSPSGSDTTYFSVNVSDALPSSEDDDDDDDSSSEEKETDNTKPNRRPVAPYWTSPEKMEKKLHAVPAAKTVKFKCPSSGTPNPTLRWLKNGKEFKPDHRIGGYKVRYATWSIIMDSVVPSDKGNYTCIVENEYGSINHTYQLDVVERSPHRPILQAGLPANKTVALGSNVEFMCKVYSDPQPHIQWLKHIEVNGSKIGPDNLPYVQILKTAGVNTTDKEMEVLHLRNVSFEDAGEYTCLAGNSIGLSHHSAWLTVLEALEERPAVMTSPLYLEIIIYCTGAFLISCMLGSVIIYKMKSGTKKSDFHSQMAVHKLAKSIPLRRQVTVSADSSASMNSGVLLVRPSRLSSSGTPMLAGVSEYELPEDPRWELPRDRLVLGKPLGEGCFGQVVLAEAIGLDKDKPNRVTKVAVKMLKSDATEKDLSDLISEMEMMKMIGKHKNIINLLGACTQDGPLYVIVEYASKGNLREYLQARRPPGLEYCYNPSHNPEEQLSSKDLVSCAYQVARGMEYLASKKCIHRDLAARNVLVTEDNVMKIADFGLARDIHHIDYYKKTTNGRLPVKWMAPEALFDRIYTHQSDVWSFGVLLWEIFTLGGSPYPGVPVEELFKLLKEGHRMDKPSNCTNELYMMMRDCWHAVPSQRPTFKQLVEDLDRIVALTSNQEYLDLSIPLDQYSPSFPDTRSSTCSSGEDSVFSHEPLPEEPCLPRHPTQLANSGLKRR
UniProt Q03142, residues 17-799: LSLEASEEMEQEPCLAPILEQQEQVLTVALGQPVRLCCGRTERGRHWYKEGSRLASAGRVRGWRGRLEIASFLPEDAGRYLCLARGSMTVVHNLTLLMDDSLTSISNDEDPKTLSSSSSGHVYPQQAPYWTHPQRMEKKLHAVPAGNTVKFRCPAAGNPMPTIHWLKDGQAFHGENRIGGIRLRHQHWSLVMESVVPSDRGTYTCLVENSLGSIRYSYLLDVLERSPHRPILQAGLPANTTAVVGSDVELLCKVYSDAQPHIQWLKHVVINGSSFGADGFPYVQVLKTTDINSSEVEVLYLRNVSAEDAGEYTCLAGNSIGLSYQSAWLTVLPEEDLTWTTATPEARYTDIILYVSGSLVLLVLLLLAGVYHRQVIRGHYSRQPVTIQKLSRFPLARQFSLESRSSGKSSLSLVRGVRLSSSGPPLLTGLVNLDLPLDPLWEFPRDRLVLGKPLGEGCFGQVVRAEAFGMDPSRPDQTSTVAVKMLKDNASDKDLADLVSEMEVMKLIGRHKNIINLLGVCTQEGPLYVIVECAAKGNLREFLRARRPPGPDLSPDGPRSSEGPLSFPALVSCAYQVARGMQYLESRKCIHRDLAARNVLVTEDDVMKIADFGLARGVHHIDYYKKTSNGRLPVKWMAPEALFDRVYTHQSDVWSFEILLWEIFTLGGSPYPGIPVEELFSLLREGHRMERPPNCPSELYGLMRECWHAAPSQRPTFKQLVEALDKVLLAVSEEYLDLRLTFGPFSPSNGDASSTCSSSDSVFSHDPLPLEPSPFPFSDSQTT
UniProt P09055, residues 21-798: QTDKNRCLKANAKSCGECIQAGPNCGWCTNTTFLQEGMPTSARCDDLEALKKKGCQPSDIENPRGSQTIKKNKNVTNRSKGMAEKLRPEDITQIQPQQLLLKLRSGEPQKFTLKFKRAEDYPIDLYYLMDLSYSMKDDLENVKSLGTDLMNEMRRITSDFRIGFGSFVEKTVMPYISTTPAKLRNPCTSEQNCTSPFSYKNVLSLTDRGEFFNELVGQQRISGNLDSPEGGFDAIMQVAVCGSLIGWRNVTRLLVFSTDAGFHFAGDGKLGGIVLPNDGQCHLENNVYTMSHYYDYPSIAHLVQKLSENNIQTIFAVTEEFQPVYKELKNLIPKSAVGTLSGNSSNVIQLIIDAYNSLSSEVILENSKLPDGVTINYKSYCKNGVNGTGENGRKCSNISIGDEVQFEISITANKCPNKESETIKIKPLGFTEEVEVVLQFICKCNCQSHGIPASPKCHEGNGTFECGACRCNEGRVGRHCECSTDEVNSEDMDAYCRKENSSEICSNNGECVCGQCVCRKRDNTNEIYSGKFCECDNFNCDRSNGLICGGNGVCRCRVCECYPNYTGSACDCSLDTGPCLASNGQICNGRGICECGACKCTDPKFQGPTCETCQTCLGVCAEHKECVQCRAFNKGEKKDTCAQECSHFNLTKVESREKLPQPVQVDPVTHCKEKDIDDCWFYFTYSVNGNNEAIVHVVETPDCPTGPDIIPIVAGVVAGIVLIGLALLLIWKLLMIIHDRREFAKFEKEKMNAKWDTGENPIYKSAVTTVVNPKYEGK

What was measured:
[1] = target: T1, Cdon (mouse (endogenous in C2C12)) (UniProt Q32MD9); test: co-IP; endogenous proteins in C2C12 cell extracts; immunoprecipitation with control IgG or Cdon antibodies overnight at 4°C, protein A- or G-agarose beads, western blotting for FGFR1 and FGFR4
T1 sequence: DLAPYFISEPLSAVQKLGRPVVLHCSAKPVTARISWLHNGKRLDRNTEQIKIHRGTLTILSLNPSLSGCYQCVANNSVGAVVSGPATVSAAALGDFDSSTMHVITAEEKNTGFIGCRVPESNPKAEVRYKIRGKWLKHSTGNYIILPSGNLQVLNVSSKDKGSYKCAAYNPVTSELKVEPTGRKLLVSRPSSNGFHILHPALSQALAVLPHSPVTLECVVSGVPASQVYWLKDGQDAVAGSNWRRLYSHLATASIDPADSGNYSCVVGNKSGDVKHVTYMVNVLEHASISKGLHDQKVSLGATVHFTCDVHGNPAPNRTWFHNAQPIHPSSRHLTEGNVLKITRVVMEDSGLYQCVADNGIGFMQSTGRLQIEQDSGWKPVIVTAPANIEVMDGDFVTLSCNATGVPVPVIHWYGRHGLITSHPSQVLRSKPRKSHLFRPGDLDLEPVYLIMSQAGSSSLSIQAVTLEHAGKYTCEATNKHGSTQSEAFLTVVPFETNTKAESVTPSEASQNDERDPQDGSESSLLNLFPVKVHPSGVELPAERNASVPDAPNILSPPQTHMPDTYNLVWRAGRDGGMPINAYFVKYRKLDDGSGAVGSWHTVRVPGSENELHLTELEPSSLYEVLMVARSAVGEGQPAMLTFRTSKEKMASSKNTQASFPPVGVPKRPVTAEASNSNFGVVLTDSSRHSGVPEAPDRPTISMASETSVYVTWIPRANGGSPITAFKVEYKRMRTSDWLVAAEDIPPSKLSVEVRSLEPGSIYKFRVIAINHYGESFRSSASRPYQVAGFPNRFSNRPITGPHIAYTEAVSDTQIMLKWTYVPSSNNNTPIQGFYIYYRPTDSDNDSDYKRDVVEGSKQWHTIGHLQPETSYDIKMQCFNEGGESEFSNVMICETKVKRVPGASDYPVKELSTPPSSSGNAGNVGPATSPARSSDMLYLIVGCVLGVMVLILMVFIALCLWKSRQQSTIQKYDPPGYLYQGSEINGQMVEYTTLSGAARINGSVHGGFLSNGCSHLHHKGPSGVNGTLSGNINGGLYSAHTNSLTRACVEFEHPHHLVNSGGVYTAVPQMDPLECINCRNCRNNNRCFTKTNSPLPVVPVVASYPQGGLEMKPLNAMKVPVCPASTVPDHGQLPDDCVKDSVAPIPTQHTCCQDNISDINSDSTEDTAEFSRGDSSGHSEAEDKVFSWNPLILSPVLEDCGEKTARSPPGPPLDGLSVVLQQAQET

[2] = target: T2, Cdon (overexpressed in 293T cells) (UniProt Q32MD9); test: co-IP; lysates of 293T cells transfected with control, Itgb1 and/or Cdon vectors; immunoprecipitation with Cdon antibodies and immunoblotting
T2 sequence: T1 sequence

binding [1]	binding [2]	Substance
binds	–	FGFR1 (from UniProt P16092 22-822) (receptor)
binds	–	FGFR4 (from UniProt Q03142 17-799) (receptor)
–	no binding	Itgb1 (overexpressed in 293T cells) (from UniProt P09055 21-798) (receptor)
